Data set [1] has as its target T1, Rad51 (Schizosaccharomyces pombe) (UniProt P36601).
T1 sequence (looked up): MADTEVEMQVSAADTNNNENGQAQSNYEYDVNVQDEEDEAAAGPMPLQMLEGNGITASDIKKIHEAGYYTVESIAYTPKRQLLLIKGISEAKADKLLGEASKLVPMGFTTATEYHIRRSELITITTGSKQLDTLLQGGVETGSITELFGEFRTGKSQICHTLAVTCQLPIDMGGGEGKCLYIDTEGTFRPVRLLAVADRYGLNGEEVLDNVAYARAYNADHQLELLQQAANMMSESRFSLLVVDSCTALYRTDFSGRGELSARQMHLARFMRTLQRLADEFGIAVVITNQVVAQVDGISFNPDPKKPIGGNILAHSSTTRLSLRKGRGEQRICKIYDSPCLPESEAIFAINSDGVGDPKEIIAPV
Description: streptavidin pull-down. The conditions noted are these: 2 mM ATP, 5 mM Mg2+, 0.312 uM Fbh1-Skp1 (filament disruption), pull-down: 25 mM Tris-Cl pH 7.5, 100 mM NaCl, 5 mM MgCl2, 37 C, recombinant protein, residues 1-365, label: 5' biotin, single-stranded DNA.

Data set [2] deals with Rad51 + S5S1-7A (Rad51 interaction mutant). Description: streptavidin pull-down. Conditions: ATP, Mg2+, Fbh1-Skp1, impaired stabilization; pull-down: 25 mM Tris-Cl pH 7.5, 100 mM NaCl, 2 mM ATP, 5 mM MgCl2, 37 C; recombinant protein; protein details: N-terminal His6 on Sfr1; label: 5' biotin; single-stranded DNA.
For data set [3] the test system is unchanged. Description: negative-stain EM. Conditions: 2 mM ATP, 5 mM Mg2+, partial stabilization; recombinant protein; protein details: N-terminal His6 on Sfr1; single-stranded DNA.
Data set [4] relates to S5S1-7A (Rad51 interaction mutant) (Schizosaccharomyces pombe). Description: EMSA. The conditions noted are these: 3.5 mM Mg2+, unlike PM, no significant shift implied, EMSA: 25 mM Hepes-KOH pH 7.5, 100 mM KCl, 3.5 mM MgCl2, 0.5 mM TCEP, 5% glycerol, 20 nM DNA, 37 C 15 min, 0.8% agarose in TAE at 4 C, recombinant protein, protein details: N-terminal His6 on Sfr1. In general terms: A gel shift assay detects complexes by their altered migration in electrophoresis.

The exact form of at least one protein or probe is not confirmed. The comparison behind a weaker result is the experiment's own reference, which may not be listed here. For some assays here: At least one verdict was read from the data and is not stated in words by the source. For some assays here: Tags and fusion partners may be left off the protein sequences shown.

Consider “ATAAGGCCACGTATTTTGCAAGCTATTTAACTGGCGGCGATTGCGTACCCGACGACCAAAATTAGGGTCAACGCTACCTGTAGGAAGTGTCCGCATAAAG [BA655 100-mer ssDNA]”, for which the binding result in data set [1] and in data set [2] was “binds more weakly” each time. Take “TTCAATATCTGGTTGAACGGCGTCGCGTCGTAACCCAGCTTGGTAAGTTGGATTAAGCACTCCGTGGACAGATTTGTCATTGTGAGCATTTTCATCCCGAAGTTGCGGCTCATTCT [BA494 116-mer ssDNA]”: in data set [3], the binding result was “binds more weakly”.

On to “TTGATAAGAGGTCATTTTTGCGGATGGCTTAGAGCTTAATTGCTGAATCTGGTGCTGTAGCTCAACATGTTTTAAATATG (double strand) [BA663/BA664 80-bp dsDNA]”, for which the binding result in data set [4] (label: 3' Cy5 on BA663) is given as “binds more weakly”. With “TTGATAAGAGGTCATTTTTGCGGATGGCTTAGAGCTTAATTGCTGAATCTGGTGCTGTAGCTCAACATGTTTTAAATATG [BA663 80-mer ssDNA]”, the binding result in data set [4] (label: 3' Cy5, single-stranded DNA) is “binds more weakly”.
